Reference: the supplement of paper PMC10849652
The other results are listed elsewhere or left out.

Sequences of proteins named here, by UniProt entry; tags and fusion partners are left off. A change or cut given only in a name is not applied to a line headed by its entry.
UniProt Q13685: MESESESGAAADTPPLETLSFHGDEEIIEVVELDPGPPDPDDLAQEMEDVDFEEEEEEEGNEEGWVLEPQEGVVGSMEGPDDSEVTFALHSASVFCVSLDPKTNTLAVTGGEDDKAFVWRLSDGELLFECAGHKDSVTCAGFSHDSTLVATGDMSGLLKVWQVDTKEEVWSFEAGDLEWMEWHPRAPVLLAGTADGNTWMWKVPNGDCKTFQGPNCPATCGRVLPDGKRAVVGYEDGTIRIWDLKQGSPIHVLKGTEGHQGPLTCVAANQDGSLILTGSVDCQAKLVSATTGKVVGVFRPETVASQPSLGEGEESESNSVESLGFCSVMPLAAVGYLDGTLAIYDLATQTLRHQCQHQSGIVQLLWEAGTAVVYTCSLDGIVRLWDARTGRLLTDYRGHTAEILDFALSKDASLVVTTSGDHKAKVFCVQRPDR
UniProt Q6PD74: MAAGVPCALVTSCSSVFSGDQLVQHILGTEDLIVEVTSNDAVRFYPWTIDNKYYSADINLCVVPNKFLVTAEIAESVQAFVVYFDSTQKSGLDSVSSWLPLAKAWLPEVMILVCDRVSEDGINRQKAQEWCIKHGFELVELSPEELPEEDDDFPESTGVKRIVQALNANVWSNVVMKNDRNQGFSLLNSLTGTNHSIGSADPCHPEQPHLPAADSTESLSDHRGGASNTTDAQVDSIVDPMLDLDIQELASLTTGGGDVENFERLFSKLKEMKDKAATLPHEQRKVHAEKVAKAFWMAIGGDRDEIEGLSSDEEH
UniProt P11117: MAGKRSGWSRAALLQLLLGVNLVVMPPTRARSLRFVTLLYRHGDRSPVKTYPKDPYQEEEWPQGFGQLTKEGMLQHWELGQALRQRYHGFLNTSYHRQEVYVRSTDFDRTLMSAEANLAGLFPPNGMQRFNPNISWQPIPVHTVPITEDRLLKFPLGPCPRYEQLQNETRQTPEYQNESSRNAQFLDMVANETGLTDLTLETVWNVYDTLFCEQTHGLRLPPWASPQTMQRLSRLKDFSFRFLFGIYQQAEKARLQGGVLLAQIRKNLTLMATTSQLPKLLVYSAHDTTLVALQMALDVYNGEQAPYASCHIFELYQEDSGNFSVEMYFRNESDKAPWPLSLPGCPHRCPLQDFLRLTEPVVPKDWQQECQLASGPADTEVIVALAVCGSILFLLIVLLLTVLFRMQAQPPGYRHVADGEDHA
UniProt P24666: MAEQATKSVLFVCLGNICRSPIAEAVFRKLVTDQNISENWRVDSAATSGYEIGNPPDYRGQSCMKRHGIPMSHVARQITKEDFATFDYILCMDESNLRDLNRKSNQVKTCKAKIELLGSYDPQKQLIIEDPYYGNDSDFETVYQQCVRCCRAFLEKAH
UniProt Q99798: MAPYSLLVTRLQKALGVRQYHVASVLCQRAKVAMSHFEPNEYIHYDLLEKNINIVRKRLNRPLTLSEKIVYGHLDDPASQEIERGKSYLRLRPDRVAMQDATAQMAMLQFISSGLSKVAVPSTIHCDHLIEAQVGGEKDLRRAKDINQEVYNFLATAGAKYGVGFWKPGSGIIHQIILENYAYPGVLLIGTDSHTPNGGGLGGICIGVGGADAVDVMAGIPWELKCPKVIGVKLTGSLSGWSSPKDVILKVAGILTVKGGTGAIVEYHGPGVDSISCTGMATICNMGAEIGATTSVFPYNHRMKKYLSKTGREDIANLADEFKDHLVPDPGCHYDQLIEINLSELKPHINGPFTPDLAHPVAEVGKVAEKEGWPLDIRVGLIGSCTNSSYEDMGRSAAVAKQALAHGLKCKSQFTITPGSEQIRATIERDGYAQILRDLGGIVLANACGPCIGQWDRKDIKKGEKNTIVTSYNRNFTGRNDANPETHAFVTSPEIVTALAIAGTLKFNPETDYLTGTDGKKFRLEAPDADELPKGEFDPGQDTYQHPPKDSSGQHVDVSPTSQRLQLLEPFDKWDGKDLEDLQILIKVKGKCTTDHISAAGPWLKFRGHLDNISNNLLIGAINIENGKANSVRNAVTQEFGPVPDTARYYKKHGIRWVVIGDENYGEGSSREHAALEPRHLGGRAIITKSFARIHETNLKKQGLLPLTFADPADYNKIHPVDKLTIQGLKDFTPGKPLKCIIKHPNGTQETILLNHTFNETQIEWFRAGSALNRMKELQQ
UniProt Q76LX8: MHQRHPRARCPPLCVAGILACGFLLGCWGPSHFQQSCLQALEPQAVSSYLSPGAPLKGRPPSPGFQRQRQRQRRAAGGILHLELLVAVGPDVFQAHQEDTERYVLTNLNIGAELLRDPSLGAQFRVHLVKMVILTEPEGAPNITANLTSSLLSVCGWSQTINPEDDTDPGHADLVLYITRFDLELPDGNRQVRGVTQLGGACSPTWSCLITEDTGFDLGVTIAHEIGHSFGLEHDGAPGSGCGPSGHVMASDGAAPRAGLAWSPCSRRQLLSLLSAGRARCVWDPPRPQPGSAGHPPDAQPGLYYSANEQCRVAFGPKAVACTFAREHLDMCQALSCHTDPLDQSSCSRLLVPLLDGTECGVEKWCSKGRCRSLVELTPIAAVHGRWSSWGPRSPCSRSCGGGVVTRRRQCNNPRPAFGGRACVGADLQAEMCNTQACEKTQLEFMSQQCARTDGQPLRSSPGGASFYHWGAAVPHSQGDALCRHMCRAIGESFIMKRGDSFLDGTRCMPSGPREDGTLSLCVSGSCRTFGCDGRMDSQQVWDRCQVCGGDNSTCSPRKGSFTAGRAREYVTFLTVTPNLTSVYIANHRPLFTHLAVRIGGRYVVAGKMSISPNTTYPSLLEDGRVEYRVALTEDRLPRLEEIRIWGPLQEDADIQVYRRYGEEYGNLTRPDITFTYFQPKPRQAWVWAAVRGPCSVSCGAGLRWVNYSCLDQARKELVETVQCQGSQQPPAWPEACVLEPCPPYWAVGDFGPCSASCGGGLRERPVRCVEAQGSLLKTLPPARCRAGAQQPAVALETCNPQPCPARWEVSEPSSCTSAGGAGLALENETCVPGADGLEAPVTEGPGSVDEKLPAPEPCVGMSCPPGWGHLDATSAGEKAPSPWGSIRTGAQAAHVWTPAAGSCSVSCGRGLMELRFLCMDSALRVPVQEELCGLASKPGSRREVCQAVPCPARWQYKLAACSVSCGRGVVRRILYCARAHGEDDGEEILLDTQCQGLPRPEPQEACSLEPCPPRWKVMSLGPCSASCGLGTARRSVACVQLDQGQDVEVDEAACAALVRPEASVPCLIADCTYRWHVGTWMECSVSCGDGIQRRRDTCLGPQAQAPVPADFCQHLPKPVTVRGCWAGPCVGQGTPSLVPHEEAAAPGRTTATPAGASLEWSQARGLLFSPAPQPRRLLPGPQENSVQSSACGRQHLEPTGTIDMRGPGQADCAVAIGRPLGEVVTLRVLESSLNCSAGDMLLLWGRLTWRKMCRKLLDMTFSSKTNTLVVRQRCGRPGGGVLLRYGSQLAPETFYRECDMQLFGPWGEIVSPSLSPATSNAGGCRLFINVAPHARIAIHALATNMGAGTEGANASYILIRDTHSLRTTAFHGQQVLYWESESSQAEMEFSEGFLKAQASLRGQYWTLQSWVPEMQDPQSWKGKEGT
UniProt O95870: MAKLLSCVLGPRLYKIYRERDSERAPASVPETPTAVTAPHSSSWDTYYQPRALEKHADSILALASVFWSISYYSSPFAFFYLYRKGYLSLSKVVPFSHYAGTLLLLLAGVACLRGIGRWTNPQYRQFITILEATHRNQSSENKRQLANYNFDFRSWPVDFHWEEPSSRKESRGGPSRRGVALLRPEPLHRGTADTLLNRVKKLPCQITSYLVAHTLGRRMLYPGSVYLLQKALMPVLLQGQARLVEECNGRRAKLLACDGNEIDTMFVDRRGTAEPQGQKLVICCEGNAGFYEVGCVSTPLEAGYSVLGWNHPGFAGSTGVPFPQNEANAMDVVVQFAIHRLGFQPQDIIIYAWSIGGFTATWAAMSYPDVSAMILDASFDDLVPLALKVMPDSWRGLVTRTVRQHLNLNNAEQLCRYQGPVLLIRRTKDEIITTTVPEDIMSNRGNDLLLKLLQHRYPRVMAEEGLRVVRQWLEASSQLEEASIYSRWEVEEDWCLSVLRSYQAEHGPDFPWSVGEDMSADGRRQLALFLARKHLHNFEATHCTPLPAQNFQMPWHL
UniProt Q2M2I8: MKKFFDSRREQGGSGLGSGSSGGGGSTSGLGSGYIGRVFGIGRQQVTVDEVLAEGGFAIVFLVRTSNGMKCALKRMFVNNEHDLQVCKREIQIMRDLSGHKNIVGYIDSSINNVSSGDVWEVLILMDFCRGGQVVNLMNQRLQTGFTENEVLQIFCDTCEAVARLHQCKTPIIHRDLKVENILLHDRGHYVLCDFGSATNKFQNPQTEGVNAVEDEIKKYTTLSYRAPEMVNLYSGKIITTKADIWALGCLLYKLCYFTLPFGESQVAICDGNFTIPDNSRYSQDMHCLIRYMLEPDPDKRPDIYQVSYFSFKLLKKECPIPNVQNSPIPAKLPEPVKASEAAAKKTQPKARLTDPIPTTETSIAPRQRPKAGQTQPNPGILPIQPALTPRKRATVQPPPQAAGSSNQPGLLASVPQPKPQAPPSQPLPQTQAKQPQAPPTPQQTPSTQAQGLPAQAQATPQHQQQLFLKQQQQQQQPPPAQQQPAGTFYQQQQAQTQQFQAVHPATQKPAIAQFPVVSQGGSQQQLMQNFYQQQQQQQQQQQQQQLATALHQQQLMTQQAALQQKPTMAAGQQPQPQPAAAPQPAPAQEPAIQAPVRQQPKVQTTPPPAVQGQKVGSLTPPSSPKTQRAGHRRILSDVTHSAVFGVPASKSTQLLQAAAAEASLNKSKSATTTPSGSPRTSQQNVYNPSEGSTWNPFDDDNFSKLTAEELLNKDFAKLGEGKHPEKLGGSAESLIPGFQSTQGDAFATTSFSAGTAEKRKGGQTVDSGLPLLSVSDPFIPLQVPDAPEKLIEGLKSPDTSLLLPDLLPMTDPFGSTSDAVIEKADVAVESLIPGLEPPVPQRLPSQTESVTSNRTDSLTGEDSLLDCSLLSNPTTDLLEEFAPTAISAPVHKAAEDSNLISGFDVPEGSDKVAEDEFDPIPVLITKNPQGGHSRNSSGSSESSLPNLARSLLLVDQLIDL
UniProt Q562R1, whole entry, looked up: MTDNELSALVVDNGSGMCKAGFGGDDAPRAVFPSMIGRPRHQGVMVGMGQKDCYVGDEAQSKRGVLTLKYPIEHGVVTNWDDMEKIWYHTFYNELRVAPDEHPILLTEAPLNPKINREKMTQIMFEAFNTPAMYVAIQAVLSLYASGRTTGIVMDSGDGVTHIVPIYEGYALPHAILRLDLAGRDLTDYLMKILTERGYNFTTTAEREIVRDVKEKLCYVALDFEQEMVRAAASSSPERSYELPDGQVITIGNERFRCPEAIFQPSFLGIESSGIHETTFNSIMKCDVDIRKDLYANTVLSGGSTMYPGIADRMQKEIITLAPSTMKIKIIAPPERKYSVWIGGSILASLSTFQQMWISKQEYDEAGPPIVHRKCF
UniProt P42025, whole entry, looked up: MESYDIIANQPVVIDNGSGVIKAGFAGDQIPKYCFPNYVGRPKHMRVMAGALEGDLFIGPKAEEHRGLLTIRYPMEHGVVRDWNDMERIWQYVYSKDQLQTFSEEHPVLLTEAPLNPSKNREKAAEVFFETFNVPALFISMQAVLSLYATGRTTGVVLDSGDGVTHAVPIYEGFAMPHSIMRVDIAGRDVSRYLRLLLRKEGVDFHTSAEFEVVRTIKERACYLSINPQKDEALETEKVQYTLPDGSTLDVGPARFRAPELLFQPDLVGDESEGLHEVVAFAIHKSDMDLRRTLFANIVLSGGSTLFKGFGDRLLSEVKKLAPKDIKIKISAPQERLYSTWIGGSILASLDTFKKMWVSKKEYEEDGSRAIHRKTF
UniProt Q9ULC5: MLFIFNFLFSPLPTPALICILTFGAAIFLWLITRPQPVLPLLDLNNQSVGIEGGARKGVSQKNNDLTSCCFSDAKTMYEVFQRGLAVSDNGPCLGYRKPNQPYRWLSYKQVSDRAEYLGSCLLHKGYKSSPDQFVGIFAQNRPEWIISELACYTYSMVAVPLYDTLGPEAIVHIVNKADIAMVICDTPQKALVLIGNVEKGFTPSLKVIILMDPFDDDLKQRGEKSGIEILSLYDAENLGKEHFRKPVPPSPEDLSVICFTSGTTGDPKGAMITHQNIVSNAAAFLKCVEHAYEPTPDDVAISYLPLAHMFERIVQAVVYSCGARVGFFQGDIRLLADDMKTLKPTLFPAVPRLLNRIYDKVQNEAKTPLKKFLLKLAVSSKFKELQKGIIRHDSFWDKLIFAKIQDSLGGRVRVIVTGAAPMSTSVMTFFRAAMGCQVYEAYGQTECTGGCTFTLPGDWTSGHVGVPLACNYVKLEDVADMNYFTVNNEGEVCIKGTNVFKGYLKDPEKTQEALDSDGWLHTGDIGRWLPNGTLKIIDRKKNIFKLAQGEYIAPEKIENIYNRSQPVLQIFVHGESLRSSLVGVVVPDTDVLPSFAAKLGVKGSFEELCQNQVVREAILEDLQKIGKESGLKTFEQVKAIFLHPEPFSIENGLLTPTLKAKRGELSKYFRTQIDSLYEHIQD

Compound: CNc1nc(-c2ccc3c(N)n[nH]c3c2)cc(N2C[C@@H](C(=O)NC3CCCCC3)CC[C@H]2C)n1
Test: log2 fold change, soluble protein after heating vs DMSO (PISA); higher = thermal stabilisation; K562 cells, 10 uM, 30 min; active = over 0.2 and 3.5 SD of the protein, either way, in both replicates (recomputed)
How it was run: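 Soluble protein was quantified by TMTpro 16plex LC-MS/MS after channel sums were equalised. It was obtained as the supernatant after 21,000xg for 90 min from pooled aliquots of K562 cells (2×10^6 cells/mL, 10 μM compound, 30 min) heated for 3 min across 48°C-58°C and extracted in PBS with 0.5% NP-40 at 4°C. Thermal stability values are relative to control samples and come from duplicates. They are given as log2 fold changes.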

log2 fold change, inactive:
ACSF3 (UniProt Q4G176) -0.016
ACAT1, A0A5F9ZHJ0 -0.093
AAMP (UniProt Q13685) -0.014
ACADVL isoform 3 (UniProt P49748) 0.008
ACSL1 (UniProt P33121) -0.025
ABCA3 (UniProt Q99758) 0.011
ACVR1 (UniProt Q04771) -0.106
AAGAB (UniProt Q6PD74) -0.084
ACP2 (UniProt P11117) -0.055
ACACB (UniProt O00763) 0.228
AAR2 (UniProt Q9Y312) -0.069
ACP1 (UniProt P24666) 0.123
ACO2 (UniProt Q99798) 0.021
ACIN1 (UniProt Q9UKV3) -0.054
AARSD1 (UniProt Q9BTE6) 0.165
ADAMTS13 (UniProt Q76LX8) 0.269
ABHD11 (UniProt Q8NFV4) -0.102
ACTN4 (UniProt K7EJH8) 0.022
ABHD16A (UniProt O95870) 0.162
ACADM isoform 2 (UniProt P11310) 0.083
ABITRAM (UniProt Q9NX38) -0.243
AAK1 (UniProt Q2M2I8) 0.252
AARSD1 isoform 3 (UniProt Q9BTE6) -0.037
ACTBL2 (UniProt Q562R1) 0.035
ACTG1 (UniProt K7EM38) 0.071
ACTR1B (UniProt P42025) -0.012
AARS2 (UniProt Q5JTZ9) 0.004
ACSL5 isoform 3 (UniProt Q9ULC5) -0.132
ACSS1 (UniProt Q9NUB1) 0.017
ABL1 isoform 2 (UniProt P00519) -0.031
ABRAXAS1 (UniProt Q6UWZ7) -0.02
ACAP2 (UniProt Q15057) -0.04

For convenience, part of the list above:
log2 fold change, inactive:
ACADM isoform 2 (UniProt P11310) 0.083
ABITRAM (UniProt Q9NX38) -0.243
